Measured values taken from PubChem BioAssay AID624291 (National Center for Advancing Translational Sciences (NCATS), 2012).
The whole screen tested about 350,000 compounds, of which about 220 (0.063%) were called active. Inconclusive means that the source gave no clear call. Such entries were picked first, then a sample of the others. The call rests on the fitted dose curve; in most records, active means well fitted activation curve with a large enough effect; inconclusive means small, poorly fitted or top-dose-only effect; inactive means no such curve, though single readings can be large or run the other way. Where the call is inconclusive, the potency comes from a doubtful curve fit.

experiment: qHTS for Activators of Integrin-Mediated Alleviation for Muscular Dystrophy; settings: alpha7betagal myoblasts, beta-gal FDG fluorescence, 48 h; activation: at 38.3 µM (top of the series); further: nearly all actives have a fitted effect of over 60% in size;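 on activation: 100% = response of the positive control SU9516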
Method in brief: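 alpha7betagal+/- myoblasts (passage 13, 250/well) treated 48 h at 37C with compounds at 1:260 dilution of DMSO stock. Lysed, then beta-galactosidase activity read as FDG fluorescence (ex 480/em 540) after 30 min, with pre-read for autofluorescence.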
Potency means the concentration at half of the fitted maximal effect.

Potency, inconclusive:
CC(OC(=O)CSCC(=O)Nc1ccc(Cl)cc1)C(=O)N(C)Cc1ccccc1 (stereo not given) 22.4 µM [activator, single point]
CCCn1nnc(NC(=S)NC(=O)c2ccccc2OC)n1 6.31 µM [activator, partial curve, poor fit]
CC(OC(=O)Cn1cnc2c1c(=O)n(C)c(=O)n2C)C(=O)Nc1ccc(Cl)cc1 (stereo not given) 28.2 µM [activator, single point]
Cc1nnc(SC(C)C(=O)Nc2nccs2)s1 (stereo not given) 10 µM [activator, partial curve, poor fit]
CC(C#N)(NC(=O)CN1CCN(S(=O)(=O)c2ccc(Br)cc2Cl)CC1)C1CC1 (stereo not given) 5.01 µM [activator, single point]
CCN1C(=O)CC(NCc2ccc(S(N)(=O)=O)cc2)C1=O (stereo not given) 5.01 µM [activator, single point]
Cc1ccc(NC(=O)CN(C)C(=O)c2cc3ccccc3o2)cc1 10 µM [activator, partial curve, poor fit]
Cc1nn(-c2ccc(C(=O)O)cc2)c(N)c1-c1ccccc1 11.2 µM [activator, partial curve, poor fit]
Cc1ccc(C)c(OCC(=O)N2CCc3ccccc3C2)c1 28.2 µM [activator, single point]
O=C(NCC1CCCO1)c1cc(S(=O)(=O)N2CCCCC2)ccc1Cl (stereo not given) 5.62 µM [activator, partial curve, poor fit]
COc1ccccc1NC(=O)CCS(=O)(=O)c1ccc2c(c1)NC(=O)C(C)S2 (stereo not given) 12.6 µM [activator, single point]
CCOc1ccc(NC(=S)NCCN2CCN(Cc3ccccc3)CC2)cc1 0.631 µM [activator, full curve, poor fit]
O=C(O)c1cncc(Br)c1 5.01 µM [activator, single point]
CCOC(=O)c1nc(Nc2ccc(C)cc2)c2ccccc2n1 0.447 µM [activator, full curve, poor fit]
O=C(CSc1nc2ccccc2n1S(=O)(=O)c1cccc([N+](=O)[O-])c1)NCCc1ccccc1 7.08 µM [activator, partial curve, poor fit]
CCN(CC)CC1(O)CCN(C(=O)c2ccc(Cl)c(Cl)c2)CC1 1.58 µM [activator, single point]
CCCSC1=C(C#N)C2(CCCCC2)C(C#N)=C(N)N1 2.24 µM [activator, single point]
CC(C(=O)Nc1ccc(Br)cc1)N(C)CC(=O)NCc1ccco1 (stereo not given) 17.8 µM [activator, single point]
CCN(CC)S(=O)(=O)c1ccc(OCC(=O)NC2CCS(=O)(=O)C2)c([N+](=O)[O-])c1 (stereo not given) 5.01 µM [activator, single point]
Cc1cccc(NC(=O)CCNS(=O)(=O)c2cccc3nonc23)c1 28.2 µM [activator, single point]
O=C(OCc1ccccc1)c1ccc2c(c1)-c1ccccc1C2=O 22.4 µM [activator, single point]
CC(=O)Nc1cccc(NC(=O)Nc2ccc(C)c(Cl)c2)c1 28.2 µM [activator, single point]
C/C(=N\NC(=O)c1nnn(-c2nonc2N)c1-c1ccc2c(c1)OCO2)c1cccs1 0.501 µM [activator, full curve, poor fit]
C=CCNC(=O)COC(=O)c1ccc(Sc2nncn2C)c([N+](=O)[O-])c1 5.01 µM [activator, single point]
CC(Oc1cccc(Br)c1)C(=O)Nc1cccc(S(=O)(=O)N2CCOCC2)c1 (stereo not given) 5.01 µM [activator, single point]
N#Cc1c(Cl)nsc1NN 20 µM [activator, partial curve, poor fit]
CC1CCCN(C(=O)c2ccc(OC3CCN(CCc4ccccc4)CC3)cc2)C1 (stereo not given) 5.01 µM [activator, single point]
COC(=O)c1ccc(-n2cnc3ccccc32)nc1 5.62 µM [activator, partial curve, poor fit]
O=C(Nc1nncs1)C1COc2ccccc2O1 (stereo not given) 31.6 µM [activator, partial curve, poor fit]
O=C1CN=C(Nc2ccccc2Cl)N1Cc1ccc2c(c1)OCO2 0.501 µM [activator, full curve, poor fit]
CC(=O)NC1=NC(=O)/C(=C/c2cn(C(C)=O)nc2-c2ccccc2)S1 3.16 µM [activator, partial curve, poor fit]
Cc1ccc(C(=O)NNC(=O)CSc2nnc(C(C)C)n2C)cc1 5.01 µM [activator, single point]
CCc1noc(C)c1C(=O)OCC(=O)NCc1ccc(Cl)cc1 2.82 µM [activator, partial curve, poor fit]
COc1ccc(/C=N/N=C2/NC(=O)C(CC(=O)O)S2)cc1OS(=O)(=O)c1ccccc1 (stereo not given) 1 µM [activator, partial curve, poor fit]
COc1ccc(CNC(=O)CS(=O)CC(=O)O)cc1OC (stereo not given) 4.47 µM [activator, single point]
COc1cc(C2/C(=C(\O)c3ccc4c(c3)OCCO4)C(=O)C(=O)N2Cc2ccccc2)ccc1O (stereo not given) 14.1 µM [activator, single point]
CCOc1ccccc1NC(=O)CCCCCN1C(=O)[C@@H]2Cc3ccccc3CN2C1=O 5.01 µM [activator, single point]
CC(C)CNC(=O)COC(=O)c1n[nH]c2ccccc12 5.01 µM [activator, single point]
N#C/C(C(=O)NCc1ccccc1)=C1/N=C(NC(=O)c2ccco2)c2ccccc21 5.01 µM [activator, single point]
COc1ccc(C(=O)OC(C)C(=O)NC(C)CCc2ccccc2)c(OC)c1 (stereo not given) 5.01 µM [activator, single point]
O=C(c1ccccc1)N1CCN(C(=O)c2nn3c(C(F)(F)F)cc(-c4ccco4)nc3c2Cl)CC1 5.01 µM [activator, single point]
Nc1ccccc1C(=O)NNC1=C(C(=O)C(F)(F)F)CCC1 2.24 µM [activator, partial curve, poor fit]
S=C(Nc1ccccn1)Nc1ccccc1Cl 11.2 µM [activator, single point]
COc1ccccc1NS(=O)(=O)c1ccc(C(=O)NCC(c2cccs2)N2CCOCC2)cc1 (stereo not given) 28.2 µM [activator, single point]
CCCOC1CCCN(Cc2cn(C)nc2-c2ccccc2F)C1 (stereo not given) 5.01 µM [activator, partial curve, poor fit]

Potency, inactive:
CC1(C)C(=O)Nc2ccccc2N1C(=O)CSc1nc(-c2ccccc2)cs1
COCc1nnc(NC(=O)c2ccc(S(=O)(=O)N(CC(C)C)CC(C)C)cc2)o1
Cc1cc(C)cc(NC(=S)N2CCN(c3ncccn3)CC2)c1
Cc1nc([N+](=O)[O-])c(Br)n1CC(=O)c1cccc([N+](=O)[O-])c1
O=C(CCN1CCCCCC1)Nc1ccc(F)c(F)c1
Cc1cc(S(=O)(=O)/N=C(\N)c2ccc(C(N)=O)cc2)cc(C)c1F
Cc1ccc(S(=O)(=O)N2CCCN(S(=O)(=O)c3ccc(C)c(C)c3)CC2)cc1C
Cc1cccc(-n2c(N)c(C(=O)NCCN3CCOCC3)c3nc4ccccc4nc32)c1
CCCCCC(O)C=CC1C(O)CC(O)C1CC=CCCCC(=O)O (stereo not given)
CCOC(=O)CC1C(=O)NCCN1S(=O)(=O)c1cccc(C(F)(F)F)c1 (stereo not given)
O=C(c1cc2c(s1)CCCC2)N1CCN(CCO)CC1
CCCCOc1ccc(C(=O)N=c2sccn2C)cc1OC
CN(C)NC(=S)Nc1cccc(Cl)c1
CCOC(=O)C(=O)Nc1ccc(Oc2ccccc2)cc1
COc1ccc(-n2c(=S)[nH]c3cc(C(=O)NCc4ccco4)ccc3c2=O)c(OC)c1
O=C(NCCc1c[nH]c2ccccc12)C(=O)NCC1OCCCN1S(=O)(=O)c1cc(F)ccc1F (stereo not given)
NC(=S)N/N=C1\CCOc2ccc(F)cc21
Fc1ccc(C[n+]2csc3ccccc32)cc1
CC1=C(C(=O)OC2CCCCC2)C(c2ccc(C)o2)C2=C(CCCC2=O)N1 (stereo not given)
CCN1CCN(c2ccc(NC(=O)c3cccc(F)c3)cc2Cl)CC1
Cc1ccc(O)c(Nc2c3ccccc3nc3ccccc23)c1
CC(C)NC(=O)c1onc(CSc2ccc(C(C)C)cc2)c1C(=O)O
Cc1cccc(Oc2sc(C(=O)c3ccccc3)c(N)c2C#N)c1

As a working copy, some entries already given.
Potency, inactive:
O=C(NCCc1c[nH]c2ccccc12)C(=O)NCC1OCCCN1S(=O)(=O)c1cc(F)ccc1F (stereo not given)
NC(=S)N/N=C1\CCOc2ccc(F)cc21
Fc1ccc(C[n+]2csc3ccccc32)cc1
CC1=C(C(=O)OC2CCCCC2)C(c2ccc(C)o2)C2=C(CCCC2=O)N1 (stereo not given)
CCN1CCN(c2ccc(NC(=O)c3cccc(F)c3)cc2Cl)CC1
Cc1ccc(O)c(Nc2c3ccccc3nc3ccccc23)c1
CC(C)NC(=O)c1onc(CSc2ccc(C(C)C)cc2)c1C(=O)O

Following part:

activation, inactive:
O=C(CSc1nnc2n(C3CCCC3)c(=O)c3ccccc3n12)N1CCCCCC1 -32.5% [at 7.66 µM]
CCOC(=O)c1cc2c(n(-c3ccccc3)c1=O)CC(C)(C)CC2=O -9.69% [at 7.66 µM]
